These are yes or no findings as the source states them, for the method shown. Some results given as binding are weak or reduced against the parent protein; the word gives no strength.
Target: T1, p130cas (rat) (UniProt Q63767)
T1 sequence: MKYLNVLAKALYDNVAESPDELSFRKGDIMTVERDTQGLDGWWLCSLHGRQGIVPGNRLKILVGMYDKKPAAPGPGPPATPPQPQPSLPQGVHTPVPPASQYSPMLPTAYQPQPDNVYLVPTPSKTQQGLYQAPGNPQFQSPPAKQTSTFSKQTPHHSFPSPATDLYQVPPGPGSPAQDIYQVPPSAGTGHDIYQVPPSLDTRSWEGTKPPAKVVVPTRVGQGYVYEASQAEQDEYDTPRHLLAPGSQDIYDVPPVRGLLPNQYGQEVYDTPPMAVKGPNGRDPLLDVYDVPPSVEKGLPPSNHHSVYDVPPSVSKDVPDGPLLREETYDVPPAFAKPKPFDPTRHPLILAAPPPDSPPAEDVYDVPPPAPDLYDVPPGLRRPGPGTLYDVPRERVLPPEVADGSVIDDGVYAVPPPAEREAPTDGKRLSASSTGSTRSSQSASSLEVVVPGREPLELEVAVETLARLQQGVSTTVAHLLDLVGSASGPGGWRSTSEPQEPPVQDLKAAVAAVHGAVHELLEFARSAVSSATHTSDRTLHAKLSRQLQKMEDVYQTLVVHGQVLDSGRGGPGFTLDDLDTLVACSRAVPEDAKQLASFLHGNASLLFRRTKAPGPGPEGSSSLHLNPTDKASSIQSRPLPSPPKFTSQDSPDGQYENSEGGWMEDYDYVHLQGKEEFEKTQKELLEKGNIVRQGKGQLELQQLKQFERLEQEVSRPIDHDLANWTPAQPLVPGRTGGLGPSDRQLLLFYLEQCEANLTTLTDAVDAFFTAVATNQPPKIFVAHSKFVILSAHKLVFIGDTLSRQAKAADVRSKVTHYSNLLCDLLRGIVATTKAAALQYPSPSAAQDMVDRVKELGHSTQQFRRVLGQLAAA
Assay: yeast two-hybrid analysis

binding: binds
B1: HEF1 carboxy-terminal domain (other)
chain: IMKQNKMQLEHHQLSQFQLLEQEITKPVENDISKWKPSQSLPTTNSGVSAQDRQLLCFYYDQCETHFISLLNAIDALFSCVSSAQPPRIFVAHSKFVILSAHKLVFIGDTLTRQVTAQDIRNKVMNSSNQLCEQLKTIVMATKMAALHYPSTTALQEMVHQVTDLSRNAQLFKRSLLEMATF
notes: Tested as a two-hybrid fusion; also called C-terminal effector domain; HEF1-Cterm182

From patent US6653074B1, “Methods for identifying agents which affect cellular morphology, locomotion and death” (Fox Chase Cancer Center, priority 1995, dated 2003)
